Data reported in publication PMC9507130.
Results are given in words; binding and its absence hold for the method and conditions named.

B1: Vin1^1-116-mScI (domain or fragment, UniProt P36158 1-116)
chain: MENDKASHASPSIGVNEFVVQGEISIDDSERSVKSVSVSISDDEDSKTDVQDNMATPSTRSKFQTDLAIDNRLLEKDPKYKKLFTEKRRRRRPESCINLMTKGKGTGQKDNINDQI
B2: Vps5^1-276-mScI (domain or fragment, UniProt Q92331 1-276)
chain: MDYEDNLEAPVWDELNHEGDKTQSLVSNSIESIGQISTNEERKDNELLETTASFADKIDLDSAPEWKDPGLSVAGNPQLEEHDNSKADDLINSLAPEQDPIADLKNSTTQFIATRESGGALFTGNANSPLVFDDTIYDANTSPNTSKSISGRRSGKPRILFDSARAQRNSKRNHSLKAKRTTASDDTIKTPFTDPLKKAEKENEFVEEPLDDRNERRENNEGKFTASVEKNILEQVDRPLYNLPQTGANISSPAEVEENSEKFGKTKIGSKVPPTE

Biological target: T1, YPE module alone (Ypt35(PX)-Envy) (S. cerevisiae) (UniProt P38815)
T1 sequence: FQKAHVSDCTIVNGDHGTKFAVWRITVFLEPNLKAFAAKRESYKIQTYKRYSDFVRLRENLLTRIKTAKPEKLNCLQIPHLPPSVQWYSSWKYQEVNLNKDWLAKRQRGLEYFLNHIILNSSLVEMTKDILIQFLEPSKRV
Test: subcellular recruitment assay (live-cell fluorescence microscopy); mScarletI-tagged prey scored as puncta per cell in yeast that express Envy-tagged Vrl1 constructs or chimeras anchored to endosomes by the Ypt35 PX domain (YPE); some experiments in a vin1Δ strain

Row | Binder | binding
1 | B1 | no binding
2 | B2 | no binding
